For this experiment, the target named is T1, FLAG-tagged QKI-6 (quaking I isoform 6) (UniProt Q9QYS9).
T1 sequence: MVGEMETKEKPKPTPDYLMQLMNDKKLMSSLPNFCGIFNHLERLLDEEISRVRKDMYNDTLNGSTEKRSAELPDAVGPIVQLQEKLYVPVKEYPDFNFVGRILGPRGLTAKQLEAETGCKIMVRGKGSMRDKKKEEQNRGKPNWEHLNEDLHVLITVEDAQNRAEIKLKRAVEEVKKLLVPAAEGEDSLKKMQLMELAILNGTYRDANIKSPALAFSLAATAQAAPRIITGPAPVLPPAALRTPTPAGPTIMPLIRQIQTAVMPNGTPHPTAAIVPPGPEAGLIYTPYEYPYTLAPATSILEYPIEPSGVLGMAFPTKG
Put plainly: co-IP; UV cross-linked (400 mJ) brain stem of FLAG-QKI-6 transgenic mice; cytoplasmic lysate (20 mM Tris pH 7.5, 100 mM KCl, 5 mM MgCl2, 0.5% Triton X) with 0.01% SDS; anti-Flag-M2 beads overnight at 4°C; immunoblot of the immunoprecipitate. For orientation: Immunoblotting shows a protein as a band on a membrane.

The chains behind the UniProt entries cited, without tags or fusion partners.
UniProt P63242: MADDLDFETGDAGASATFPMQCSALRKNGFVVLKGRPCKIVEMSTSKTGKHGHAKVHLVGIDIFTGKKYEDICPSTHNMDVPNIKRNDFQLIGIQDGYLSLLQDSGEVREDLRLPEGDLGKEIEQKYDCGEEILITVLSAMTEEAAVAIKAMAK

Binding data for 1 substance are collected here from PMC4066780.

No constants are given. Whether binding was seen depends on the method and setting. Binding seen in cells or lysates may run through a third protein. Where a sequence is shown, tags or fusion partners need not be part of it.

Regarding “eIF5α (housekeeping protein) (from UniProt P63242 1-154)”, the binding result was “no binding”.
